For test [1], the target named is ATP-binding cassette transporter A1 (ABCA1) tagged with GFP (UniProt O95477). Description: co-IP; GFP-Trap agarose on RIPA lysates of HeLa (ABCA1-GFP) or HeLa (negative) cells, overnight at 4 °C; western blotting. A general note: Immunoblotting shows a protein as a band on a membrane.
For test [2], the target named is ATP-binding cassette transporter A1 (ABCA1), endogenous in immortalized mouse astrocytes (mouse (endogenous in immortalized mouse astrocytes)) (UniProt P41233). Description: co-IP; anti-ABCA1 antibody or species-matched IgG with Dynabeads Protein G on RIPA lysates of immortalized astrocytes, overnight at 4 °C; washed with 0.1% TBST; western blotting.

Sequences of proteins named here, by UniProt entry; tags and fusion partners are left off.
UniProt O95477: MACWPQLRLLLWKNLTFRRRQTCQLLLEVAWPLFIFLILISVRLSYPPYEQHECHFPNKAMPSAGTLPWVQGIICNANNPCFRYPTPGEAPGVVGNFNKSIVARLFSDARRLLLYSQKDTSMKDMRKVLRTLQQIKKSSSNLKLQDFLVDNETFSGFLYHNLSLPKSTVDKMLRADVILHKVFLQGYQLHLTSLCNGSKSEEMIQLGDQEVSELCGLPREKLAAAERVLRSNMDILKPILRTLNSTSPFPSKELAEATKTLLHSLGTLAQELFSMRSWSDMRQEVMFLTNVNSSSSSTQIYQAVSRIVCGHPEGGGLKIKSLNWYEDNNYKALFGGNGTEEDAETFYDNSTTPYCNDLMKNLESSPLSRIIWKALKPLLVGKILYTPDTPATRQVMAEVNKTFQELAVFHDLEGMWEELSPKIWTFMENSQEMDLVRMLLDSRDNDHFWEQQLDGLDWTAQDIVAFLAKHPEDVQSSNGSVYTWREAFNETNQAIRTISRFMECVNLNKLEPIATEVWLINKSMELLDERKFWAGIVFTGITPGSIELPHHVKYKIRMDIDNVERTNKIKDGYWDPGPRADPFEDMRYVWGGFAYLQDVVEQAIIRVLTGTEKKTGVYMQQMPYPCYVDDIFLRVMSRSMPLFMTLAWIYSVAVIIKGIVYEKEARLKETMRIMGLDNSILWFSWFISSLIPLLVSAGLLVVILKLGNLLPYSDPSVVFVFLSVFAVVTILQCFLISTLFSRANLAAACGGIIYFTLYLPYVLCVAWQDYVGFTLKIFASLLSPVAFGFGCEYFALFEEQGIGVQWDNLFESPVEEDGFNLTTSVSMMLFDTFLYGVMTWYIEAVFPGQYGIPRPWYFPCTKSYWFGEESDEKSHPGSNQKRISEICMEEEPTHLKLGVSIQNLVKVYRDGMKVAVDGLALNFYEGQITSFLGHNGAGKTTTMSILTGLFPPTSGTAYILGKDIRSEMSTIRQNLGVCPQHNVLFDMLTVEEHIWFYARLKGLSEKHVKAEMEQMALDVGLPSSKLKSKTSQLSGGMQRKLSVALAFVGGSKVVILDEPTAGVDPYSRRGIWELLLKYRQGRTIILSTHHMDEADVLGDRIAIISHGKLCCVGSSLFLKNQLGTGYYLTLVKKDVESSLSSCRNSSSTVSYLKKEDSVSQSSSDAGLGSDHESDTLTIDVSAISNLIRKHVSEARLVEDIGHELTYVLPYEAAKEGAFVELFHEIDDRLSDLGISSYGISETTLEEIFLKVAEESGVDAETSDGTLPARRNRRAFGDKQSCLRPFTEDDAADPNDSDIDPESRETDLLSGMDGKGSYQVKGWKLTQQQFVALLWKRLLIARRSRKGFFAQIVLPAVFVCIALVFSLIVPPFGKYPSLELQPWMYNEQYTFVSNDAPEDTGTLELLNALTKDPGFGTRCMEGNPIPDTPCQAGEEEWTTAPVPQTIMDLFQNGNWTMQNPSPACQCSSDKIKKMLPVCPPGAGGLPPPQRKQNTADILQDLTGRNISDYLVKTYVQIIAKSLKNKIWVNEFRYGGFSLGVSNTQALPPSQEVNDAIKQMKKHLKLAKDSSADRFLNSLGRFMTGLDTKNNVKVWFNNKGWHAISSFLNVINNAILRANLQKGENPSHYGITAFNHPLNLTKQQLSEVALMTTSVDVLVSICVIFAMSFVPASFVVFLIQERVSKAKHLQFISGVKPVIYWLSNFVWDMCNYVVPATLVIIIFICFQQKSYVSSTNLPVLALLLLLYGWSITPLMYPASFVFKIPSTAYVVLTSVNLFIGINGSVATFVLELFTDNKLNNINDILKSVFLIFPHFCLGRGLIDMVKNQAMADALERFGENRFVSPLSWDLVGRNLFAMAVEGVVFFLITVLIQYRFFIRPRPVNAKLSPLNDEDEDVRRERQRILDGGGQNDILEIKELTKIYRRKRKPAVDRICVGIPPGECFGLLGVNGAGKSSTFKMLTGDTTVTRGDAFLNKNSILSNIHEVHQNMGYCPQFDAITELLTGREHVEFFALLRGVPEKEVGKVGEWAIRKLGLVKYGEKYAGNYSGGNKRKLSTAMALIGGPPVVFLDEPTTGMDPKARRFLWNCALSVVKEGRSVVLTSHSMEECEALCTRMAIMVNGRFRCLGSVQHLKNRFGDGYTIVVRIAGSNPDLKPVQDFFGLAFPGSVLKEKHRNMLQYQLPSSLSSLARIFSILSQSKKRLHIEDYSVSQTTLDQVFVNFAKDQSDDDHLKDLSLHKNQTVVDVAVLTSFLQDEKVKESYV
UniProt P41233: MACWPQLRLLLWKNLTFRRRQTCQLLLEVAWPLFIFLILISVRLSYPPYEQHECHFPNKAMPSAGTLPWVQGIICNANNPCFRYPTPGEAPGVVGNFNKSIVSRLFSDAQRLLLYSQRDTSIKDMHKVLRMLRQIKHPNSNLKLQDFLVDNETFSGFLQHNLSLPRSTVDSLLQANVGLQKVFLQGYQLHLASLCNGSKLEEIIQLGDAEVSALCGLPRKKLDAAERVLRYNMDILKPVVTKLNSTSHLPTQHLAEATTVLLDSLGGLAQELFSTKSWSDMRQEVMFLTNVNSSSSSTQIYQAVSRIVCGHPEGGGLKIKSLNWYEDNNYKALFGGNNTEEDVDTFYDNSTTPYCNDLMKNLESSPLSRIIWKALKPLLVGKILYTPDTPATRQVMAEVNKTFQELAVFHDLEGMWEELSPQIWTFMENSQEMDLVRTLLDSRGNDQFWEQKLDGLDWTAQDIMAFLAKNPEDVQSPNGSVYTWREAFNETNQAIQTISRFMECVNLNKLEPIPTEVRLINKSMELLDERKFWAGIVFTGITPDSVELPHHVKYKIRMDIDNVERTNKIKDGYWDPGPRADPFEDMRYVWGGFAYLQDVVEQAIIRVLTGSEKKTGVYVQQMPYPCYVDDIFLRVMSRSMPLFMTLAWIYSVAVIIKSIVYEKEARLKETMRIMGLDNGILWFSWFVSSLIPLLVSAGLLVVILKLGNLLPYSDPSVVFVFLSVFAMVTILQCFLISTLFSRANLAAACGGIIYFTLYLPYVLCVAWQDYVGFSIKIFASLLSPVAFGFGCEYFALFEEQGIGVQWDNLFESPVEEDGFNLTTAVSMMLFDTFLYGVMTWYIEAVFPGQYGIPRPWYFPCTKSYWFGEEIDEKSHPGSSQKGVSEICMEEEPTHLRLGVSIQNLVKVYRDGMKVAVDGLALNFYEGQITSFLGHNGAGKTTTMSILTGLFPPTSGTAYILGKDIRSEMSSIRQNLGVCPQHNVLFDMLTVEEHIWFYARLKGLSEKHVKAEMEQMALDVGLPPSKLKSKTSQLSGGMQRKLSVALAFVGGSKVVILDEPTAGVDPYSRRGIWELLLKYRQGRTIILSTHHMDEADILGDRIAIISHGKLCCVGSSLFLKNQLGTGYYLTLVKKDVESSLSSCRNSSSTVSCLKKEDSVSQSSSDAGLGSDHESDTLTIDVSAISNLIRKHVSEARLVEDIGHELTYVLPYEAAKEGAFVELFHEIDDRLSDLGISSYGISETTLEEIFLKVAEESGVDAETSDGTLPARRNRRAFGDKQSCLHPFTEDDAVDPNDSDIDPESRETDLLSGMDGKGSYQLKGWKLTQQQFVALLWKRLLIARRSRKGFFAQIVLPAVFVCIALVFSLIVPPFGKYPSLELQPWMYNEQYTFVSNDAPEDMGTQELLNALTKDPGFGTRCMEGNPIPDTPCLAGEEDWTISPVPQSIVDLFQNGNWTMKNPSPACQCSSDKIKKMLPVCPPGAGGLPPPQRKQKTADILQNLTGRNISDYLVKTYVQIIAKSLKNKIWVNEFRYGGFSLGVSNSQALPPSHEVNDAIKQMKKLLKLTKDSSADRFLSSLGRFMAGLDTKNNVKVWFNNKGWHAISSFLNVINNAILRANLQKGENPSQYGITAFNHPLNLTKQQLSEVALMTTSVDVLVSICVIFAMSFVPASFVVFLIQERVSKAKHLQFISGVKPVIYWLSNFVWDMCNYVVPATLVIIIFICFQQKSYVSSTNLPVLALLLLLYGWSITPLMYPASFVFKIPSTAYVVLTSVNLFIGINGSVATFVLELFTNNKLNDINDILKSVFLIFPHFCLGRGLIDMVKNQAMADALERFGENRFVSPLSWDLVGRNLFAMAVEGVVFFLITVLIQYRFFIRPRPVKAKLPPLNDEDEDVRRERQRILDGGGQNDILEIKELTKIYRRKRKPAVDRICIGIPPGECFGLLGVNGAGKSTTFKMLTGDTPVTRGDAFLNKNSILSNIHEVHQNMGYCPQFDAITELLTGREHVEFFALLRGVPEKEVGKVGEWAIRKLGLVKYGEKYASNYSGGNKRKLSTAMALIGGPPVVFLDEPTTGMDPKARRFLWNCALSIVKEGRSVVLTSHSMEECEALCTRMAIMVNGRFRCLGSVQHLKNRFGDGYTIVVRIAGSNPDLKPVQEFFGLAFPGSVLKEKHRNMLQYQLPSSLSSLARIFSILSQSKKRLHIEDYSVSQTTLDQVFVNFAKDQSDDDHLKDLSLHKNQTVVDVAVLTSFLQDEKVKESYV
UniProt P63010: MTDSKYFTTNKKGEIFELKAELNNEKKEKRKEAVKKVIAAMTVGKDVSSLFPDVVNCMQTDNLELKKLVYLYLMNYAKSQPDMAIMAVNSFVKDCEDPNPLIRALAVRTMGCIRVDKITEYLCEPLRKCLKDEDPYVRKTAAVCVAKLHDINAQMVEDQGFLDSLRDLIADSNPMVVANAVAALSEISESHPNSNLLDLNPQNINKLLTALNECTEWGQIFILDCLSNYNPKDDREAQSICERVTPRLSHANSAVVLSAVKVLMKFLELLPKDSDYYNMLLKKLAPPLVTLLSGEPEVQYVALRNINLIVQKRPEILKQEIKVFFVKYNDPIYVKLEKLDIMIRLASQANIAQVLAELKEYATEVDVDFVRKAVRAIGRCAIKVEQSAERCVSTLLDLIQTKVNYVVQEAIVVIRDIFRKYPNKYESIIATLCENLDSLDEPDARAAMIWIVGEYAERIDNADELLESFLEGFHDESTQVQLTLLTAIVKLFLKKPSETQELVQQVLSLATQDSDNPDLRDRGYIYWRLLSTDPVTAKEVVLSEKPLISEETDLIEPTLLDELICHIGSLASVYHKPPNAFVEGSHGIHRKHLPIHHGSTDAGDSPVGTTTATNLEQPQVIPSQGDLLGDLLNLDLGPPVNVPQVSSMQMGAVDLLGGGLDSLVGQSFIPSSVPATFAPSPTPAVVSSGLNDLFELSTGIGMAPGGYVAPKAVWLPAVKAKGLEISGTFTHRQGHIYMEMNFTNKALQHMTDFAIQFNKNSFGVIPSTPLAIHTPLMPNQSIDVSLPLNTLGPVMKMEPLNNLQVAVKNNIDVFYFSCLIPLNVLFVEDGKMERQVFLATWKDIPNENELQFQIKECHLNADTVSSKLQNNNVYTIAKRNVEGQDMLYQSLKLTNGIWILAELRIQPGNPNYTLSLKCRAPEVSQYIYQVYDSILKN

Results are given in words; binding and its absence hold for the method and conditions named. In cells and extracts the contact can be indirect. Some binding calls cover weakened binding; strength is not graded here.

Take Caveolin-1 (from UniProt Q03135 1-178): the binding result in test [1] is “binds”.
“adaptor-related protein complex 2 subunit beta 1 (from UniProt P63010 1-937)”: the binding entry in test [1] is given as “binds”.

B1: Caveolin-1, endogenous in immortalized mouse astrocytes (protein, UniProt P49817 1-178)
chain: MSGGKYVDSEGHLYTVPIREQGNIYKPNNKAMADEVTEKQVYDAHTKEIDLVNRDPKHLNDDVVKIDFEDVIAEPEGTHSFDGIWKASFTTFTVTKYWFYRLLSTIFGIPMALIWGIYFAILSFLHIWAVVPCIKSFLIEIQCISRVYSIYVHTFCDPLFEAIGKIFSNIRISTQKEI
Regarding B1, in test [2], the binding result is “binds”.

(Values after paper PMC11792374.)
